Laboratory results published in PubChem BioAssay AID1439 (NMMLSC, 2008).
The whole screen tested about 220,000 compounds, of which about 770 (0.35%) were called active. The shares of active, inactive and inconclusive entries below differ from those in the screen. Cut-off read from the data, not from the text of the source: active = binding response below about 49% or above about 150%; inconclusive = no clear call, values can overlap the other calls; inactive = in between.

Sequences of proteins named here, by UniProt entry; tags and fusion partners are left off.
UniProt P09471, whole entry, looked up: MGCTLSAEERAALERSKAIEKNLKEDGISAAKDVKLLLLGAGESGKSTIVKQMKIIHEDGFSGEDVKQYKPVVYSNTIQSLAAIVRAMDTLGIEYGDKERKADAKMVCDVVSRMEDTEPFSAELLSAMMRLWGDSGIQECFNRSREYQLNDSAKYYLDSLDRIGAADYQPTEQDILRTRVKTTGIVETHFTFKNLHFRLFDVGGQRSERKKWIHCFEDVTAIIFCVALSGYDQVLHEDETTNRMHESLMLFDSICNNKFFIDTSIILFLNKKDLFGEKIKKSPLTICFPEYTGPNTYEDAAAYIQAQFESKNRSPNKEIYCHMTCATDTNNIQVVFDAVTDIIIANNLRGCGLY

Biological target: Guanine nucleotide-binding protein G(o) subunit alpha (Homo sapiens) (UniProt P09471)
Assay: RGS7-Galphao binding modulators, primary screen, biochemical, multiplexed bead flow cytometry (AID 1439);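 note: fluorescent Galphao held in activated GDP-AlF4 state binding bead-coupled RGS7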
Conditions: at 10 µM, actives lie on both sides

SMILES | binding response (% of control)
O=C(c1cccnc1)C1Cc2ccccc2C1=O (configuration not stated) | inconclusive: 101%
Cc1ccc(OCc2nnc(N)s2)cc1C | inconclusive: 107%
COc1ccc(C)cc1N=Nc1ccc(O)c2ncccc12 | inconclusive: 56%
O=S(=O)(c1ccc(N2CCN(Cc3ccc4c(c3)OCO4)CC2)nc1)N1CCOCC1 | inconclusive: 96.7%
CCOC(=O)Cn1c(=O)c(C#N)cn(C(C)C)c1=O | inconclusive: 132%
O=c1cc(-c2ccccc2Cl)oc2c(NS(=O)(=O)c3ccccc3OC(F)(F)F)ccc(O)c12 | inconclusive: 105%
COc1ccccc1-c1ccc(/C=N/O)o1 | inconclusive: 105%
CCCCNS(=O)(=O)c1ccc2nc(-c3cccnc3)cc(C(=O)NC3CCCC3)c2c1 | inconclusive: 87%
COc1ccc(-c2cc([C@H]3[C@H]4C=CC[C@@H](C)[C@@H]4C(=O)N3Cc3ccccc3)ccc2F)cc1OC | inconclusive: 78.4%
CCOC(=O)C1(Cc2ccc(Cl)cc2)CCN(C(=O)CCc2ccncc2)CC1 | inactive: 96.9%
O=C(CSc1n[nH]c(=O)n1C1CC1)c1ccc(F)cc1 | inconclusive: 130%
Cc1ccc2c(O)c(C)c(=O)[nH]c2n1 | inactive: 106%
COc1ccc(NC(=O)CSc2nc(N)c(NC(=O)c3cccs3)c(=O)[nH]2)cc1 | inconclusive: 216%
N#Cc1ccc(C23CC4(C2)[C@H](CN(Cc2ccc(C(F)(F)F)cc2)[C@@H]4c2ccccc2)C3c2ccc(Cl)nc2)cc1 (some centres not stated) | inconclusive: 98.8%
CCc1ccc(OCCOCC(O)CNC2CCCC2)cc1 (configuration not stated) | inactive: 102%
O=c1[nH]cnc(O)c1C(c1ccc(Br)cc1)c1c(O)nc[nH]c1=O | inconclusive: 144%
CCCCn1c(SCC(=O)N(C)C2CCS(=O)(=O)C2)nc2cc(S(N)(=O)=O)ccc21 (configuration not stated) | inconclusive: 107%
Cc1ccc(NC(=S)NC(C)(C)C)c([N+](=O)[O-])c1 | inconclusive: 164%
CCC1=NN(C(=O)Cc2ccc([N+](=O)[O-])cc2)C(O)(C(F)(F)F)C1 (configuration not stated) | inconclusive: 67%

SMILES | binding response (% of control)
COc1ccc(CCNCC(O)Cn2ccc3ccccc32)cc1OC (configuration not stated) | inconclusive: 102%
COc1ccc(-c2csc(NC(=O)c3cc(=O)c4ccccc4o3)n2)cc1OC | inconclusive: 108%
c1ccc2sc(Cc3nnc4n3CCCCC4)nc2c1 | inactive: 122%
c1ccc(CN2CCOCCOCCOCCOCC2)cc1 | inconclusive: -23.6%
O=C(CCCN1C(=O)c2ccccc2C1=O)NC1=NCCS1 | inactive: 98%
CC1CC(CCC(=O)NC(=S)Nc2ccc(Cl)cn2)C(=O)O1 (configuration not stated) | inactive: 103%
O=C(c1cc(-c2ccccn2)nc2ccc(Cl)cc12)N1CCN(CCc2ccccc2)CC1 | inconclusive: 109%
FC(F)(F)c1ccc(Cl)c(NC(=S)N/N=C/c2ccccc2Cl)c1 | inconclusive: 139%
CCc1nnc(NC(=O)c2cccc(S(=O)(=O)N3CCc4ccccc43)c2)s1 | active: 22.9%
CCOC(=O)C1CCCN(CC(=O)Nc2cccc(C(C)=O)c2)C1 (configuration not stated) | inconclusive: 96.4%
COc1ccc(CNC(=O)C2CC(c3ccccc3C(F)(F)F)=NO2)cc1 (configuration not stated) | inconclusive: 119%
O=C(O)CC[C@@H](C(=O)O)N1C(=O)c2ccccc2C1=O | inconclusive: 83.8%
COc1ccc(-c2c3c(=O)n(C)c(=O)n(C)c3cn2-c2ccccc2O)cc1 | inconclusive: 113%
CCCn1c(N)c(C(=O)CSc2nc3ccccc3s2)c(=O)[nH]c1=O | inconclusive: 97.3%
CCCCC1(CO)C(=O)N(c2ccccc2)N(c2ccccc2)C1=O | inconclusive: 63.4%
COc1ccc(NC(=O)O/N=C/c2ccccc2Cl)cc1 | inconclusive: 97%
O=C(CN1C(=O)NC2(CCCC2)C1=O)OCc1cc(=O)n2cc(Br)ccc2n1 | inconclusive: 189%
COc1ccc(C(Nc2cccc([N+](=O)[O-])c2)P(=O)(OC(C)C)OC(C)C)cc1 (configuration not stated) | inconclusive: 116%
O=C(NCc1ccccc1Cl)c1cnccc1C(F)(F)F | inconclusive: 84.8%

SMILES | binding response (% of control)
CCn1c(O)c(N=NC(=O)c2cccnc2)c2cc(Br)ccc21 | inconclusive: 87.4%
Cc1ccc(C(=O)CSc2nnnn2Cc2ccccc2)cc1C | inconclusive: 104%
O=C(Nc1ccc2c(c1)OCO2)C1CCN(C(=O)c2ccc([N+](=O)[O-])cc2)CC1 | inactive: 92.7%
OC1(c2ccc(Br)cc2)CN(c2ccccc2)C2=[N+]1CCS2 (configuration not stated) | inconclusive: 118%
O=c1cc(CSCc2ccc(Cl)cc2)[nH]c(=O)[nH]1 | inconclusive: 82.6%
O=C(COC(=O)c1ccccc1Br)NCCN1C(=O)CSC1=O | inconclusive: 115%
O=C(COc1ccc(Cl)cc1Cl)NN1C(=O)C2C3C=CC([C@@H]2C1=O)C31CC1 (some centres not stated) | inconclusive: 117%
COc1ccc(/C=C\c2onc(C)c2S(=O)(=O)N2CCC(C(=O)NCc3ccco3)CC2)cc1 | inconclusive: 109%
COc1cccc(-n2c([S-])c(C(=O)Nc3ccc(S(=O)(=O)N4CCOCC4)cc3)[n+]3cc(C(N)=O)ccc23)c1 | inconclusive: 68.6%
Nc1cc(-c2ccccc2)nn1Cc1ccc(Cl)cc1 | inactive: 93.9%
COc1ccc(-c2nnc(SCc3ccc(C(=O)O)cc3)n2N)cc1 | inconclusive: 104%
N#CC1=CN(Cc2ccccc2)C=C(/C=N/Nc2ccccc2)C1 | inconclusive: 93%
C=CCc1cccc2cc(C(=O)Nc3ccc(CC(=O)O)cc3)c(=O)oc12 | inconclusive: 108%
COc1ccc(CCNc2nc(-c3ccccn3)cs2)cc1OC | inconclusive: 99.4%
Cc1c(C(=O)Nc2cccc(S(=O)(=O)N3CCCC3)c2)oc2ccccc12 | inconclusive: 126%
N#Cc1ccc(NC(=O)Nc2cccc(C#N)c2)cc1 | inconclusive: 256%
Cc1ccc(OCc2cnc(Cl)s2)c(C)c1 | inactive: 84.3%
COc1ccc(C(=O)NC2=Nc3ccccc3N=C(C)C2c2ccccc2)cc1 (configuration not stated) | inconclusive: 123%
O=C1C(CSCc2ccccc2)NC(=S)N1c1ccccc1 (configuration not stated) | inconclusive: 347%

Reprinted at random: three entries already listed.
SMILES | binding response (% of control)
C=CCc1cccc2cc(C(=O)Nc3ccc(CC(=O)O)cc3)c(=O)oc12 | inconclusive: 108%
O=C1C(CSCc2ccccc2)NC(=S)N1c1ccccc1 (configuration not stated) | inconclusive: 347%
Cc1ccc(C(=O)CSc2nnnn2Cc2ccccc2)cc1C | inconclusive: 104%
